Assay results: paper PMC10866885
Results are given in words; binding and its absence hold for the method and conditions named. Some binding calls cover weakened binding; strength is not graded here.

By UniProt entry, the sequences of proteins in these tests, tags left out. Where a name states a change or a piece, a line headed by the entry shows the natural chain unless it says otherwise. Chains listed by the source or under a name are the forms on record and can include a tag or linker.
VEGFR2 C482R mutant tagged with mCherry (P35968, form named): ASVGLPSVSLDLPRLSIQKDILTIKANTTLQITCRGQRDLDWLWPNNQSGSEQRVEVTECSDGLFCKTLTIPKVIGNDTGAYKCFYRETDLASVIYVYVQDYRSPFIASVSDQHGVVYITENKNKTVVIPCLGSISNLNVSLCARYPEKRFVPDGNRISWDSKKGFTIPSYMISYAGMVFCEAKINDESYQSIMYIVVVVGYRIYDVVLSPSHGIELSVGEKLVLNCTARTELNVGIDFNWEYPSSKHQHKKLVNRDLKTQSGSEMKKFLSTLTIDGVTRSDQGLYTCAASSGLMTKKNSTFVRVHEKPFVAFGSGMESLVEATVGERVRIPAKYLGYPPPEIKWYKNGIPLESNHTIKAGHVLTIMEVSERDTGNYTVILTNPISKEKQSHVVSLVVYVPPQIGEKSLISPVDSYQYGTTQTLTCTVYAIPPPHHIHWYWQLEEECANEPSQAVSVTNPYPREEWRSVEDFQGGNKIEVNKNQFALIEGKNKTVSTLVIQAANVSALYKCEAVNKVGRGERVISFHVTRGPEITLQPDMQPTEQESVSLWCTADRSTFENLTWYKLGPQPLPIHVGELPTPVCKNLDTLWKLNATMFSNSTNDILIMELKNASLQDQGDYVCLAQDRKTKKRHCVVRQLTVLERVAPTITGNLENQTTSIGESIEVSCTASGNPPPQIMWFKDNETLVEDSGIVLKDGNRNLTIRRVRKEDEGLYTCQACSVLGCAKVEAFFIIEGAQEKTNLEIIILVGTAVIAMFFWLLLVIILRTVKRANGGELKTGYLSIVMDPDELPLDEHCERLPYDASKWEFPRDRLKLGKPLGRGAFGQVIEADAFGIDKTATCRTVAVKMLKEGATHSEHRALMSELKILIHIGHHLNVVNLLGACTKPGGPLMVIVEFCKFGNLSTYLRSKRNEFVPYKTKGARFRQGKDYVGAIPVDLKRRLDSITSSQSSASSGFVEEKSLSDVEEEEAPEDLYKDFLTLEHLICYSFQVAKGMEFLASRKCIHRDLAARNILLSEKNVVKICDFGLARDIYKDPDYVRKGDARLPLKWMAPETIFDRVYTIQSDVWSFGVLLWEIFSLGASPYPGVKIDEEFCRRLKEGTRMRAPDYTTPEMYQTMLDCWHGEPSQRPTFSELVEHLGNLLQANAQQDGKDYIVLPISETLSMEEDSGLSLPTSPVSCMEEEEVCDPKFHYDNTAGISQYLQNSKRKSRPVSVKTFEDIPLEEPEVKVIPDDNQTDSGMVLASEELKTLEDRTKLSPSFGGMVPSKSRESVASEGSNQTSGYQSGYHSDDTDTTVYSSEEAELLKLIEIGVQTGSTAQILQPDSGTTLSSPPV

Biological target: VEGFR2 C482R mutant tagged with mCherry (human) (UniProt P35968)
Test: FRAP (diffusion coefficient on the plasma membrane); mCherry-fused receptor in transiently transfected, serum-starved CHO cells, without VEGF165 (for the GPA controls no ligand is named); room temperature; oligomeric state derived from D_confocal against monomer and dimer controls

- binding: binds
Substance: VEGFR2 C482R mutant tagged with mCherry (from UniProt P35968 20-1356) (receptor)
